Values of other authors, collected in patent US7452680B2, “MCT1 transporters expressed in blood brain barrier cells” (XenoPort, Inc., priority 2004, dated 2008).
At least one compound was matched to its structure with a doubt left.

Molecular target: T1, MCT1 (Homo sapiens, UniProt P53985)
T1 sequence (P53985 1-500): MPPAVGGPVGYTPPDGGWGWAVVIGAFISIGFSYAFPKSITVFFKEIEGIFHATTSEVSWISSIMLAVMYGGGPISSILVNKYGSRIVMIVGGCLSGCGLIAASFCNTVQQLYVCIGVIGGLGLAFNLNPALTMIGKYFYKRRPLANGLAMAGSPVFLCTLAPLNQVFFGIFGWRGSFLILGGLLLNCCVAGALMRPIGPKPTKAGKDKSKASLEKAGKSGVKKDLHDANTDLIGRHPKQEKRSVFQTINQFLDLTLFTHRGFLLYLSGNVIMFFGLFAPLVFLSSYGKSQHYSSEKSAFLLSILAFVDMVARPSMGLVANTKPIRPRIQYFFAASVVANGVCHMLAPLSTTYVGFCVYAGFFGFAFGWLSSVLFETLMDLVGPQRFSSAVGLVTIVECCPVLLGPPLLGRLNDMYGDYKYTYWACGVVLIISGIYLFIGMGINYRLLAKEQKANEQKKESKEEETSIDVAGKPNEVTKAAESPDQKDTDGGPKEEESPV
T1 sequence (P35613 140-385 partner limits assumed): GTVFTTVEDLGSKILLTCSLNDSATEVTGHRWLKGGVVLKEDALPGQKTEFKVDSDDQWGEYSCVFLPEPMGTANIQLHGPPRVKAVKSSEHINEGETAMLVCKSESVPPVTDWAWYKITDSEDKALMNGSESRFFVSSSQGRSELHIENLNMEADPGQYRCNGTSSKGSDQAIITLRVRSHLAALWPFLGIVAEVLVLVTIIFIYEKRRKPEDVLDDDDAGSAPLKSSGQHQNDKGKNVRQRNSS
Conditions: cited from earlier work

In the case of `CC[C@H](C)C(=O)O[C@H]1C[C@H](O)C=C2C=C[C@H](C)[C@H](CC[C@@H](O)C[C@@H](O)CC(=O)O)[C@H]21` [Pravastatin], the “Reported Affinity for MCT1” value is listed as greater than 5 mM.
